Experimental data as given in article PMC11656743.
These are yes or no findings as the source states them, for the method shown. Sequences can lack the tags named with a protein.

Molecular target: σ^A, recombinant, tag cleaved (strain LK2832) (M. smegmatis) (UniProt A0QW02)
Assay: AUC; sedimentation velocity, 20°C, 50 mM HEPES pH 7.5, 100 mM NaCl, 0.5 mM TCEP, 3 mM NaN3; σ^A 19.4 µM, MoaB2 77.6 µM, σ^A:MoaB2 mixtures 1:0.1 to 1:4; both purified

binding: no binding (tested: 19.4 µM)
B1: σ^A, recombinant, tag cleaved (strain LK2832) (protein, UniProt A0QW02 2-466)
chain: GAATKASPATEEPVKRTATKTPAKKAPAKRAAKSAAAKAGGKAPAKKAPAKRAAKGTAAKPEDGVTDDLEVTDDLEAEPGEDLDVEDTDLELDDLDSDDDTAVEDEEEEADAATPAVATAKAADDDIDEPSEKDKASGDFVWDEEESEALRQARKDAELTASADSVRAYLKQIGKVALLNAEEEVELAKRIEAGLYATQKLAELAEKGEKLPVQQRRDMQWICRDGDRAKNHLLEANLRLVVSLAKRYTGRGMAFLDLIQEGNLGLIRAVEKFDYTKGYKFSTYATWWIRQAITRAMADQARTIRIPVHMVEVINKLGRIQRELLQDLGREPTPEELAKEMDITPEKVLEIQQYAREPISLDQTIGDEGDSQLGDFIEDSEAVVAVDAVSFTLLQDQLQSVLETLSEREAGVVRLRFGLTDGQPRTLDEIGQVYGVTRERIRQIESKTMSKLRHPSRSQVLRDYLD
